Assay results taken from paper PMC2765060.
No constants are given. Whether binding was seen depends on the method and setting. In cells and extracts the contact can be indirect. Some entries that bind do so weakly or less than the wild type. Where a sequence is shown, tags or fusion partners need not be part of it.

Biological target: T1, FLAG-tagged wild type Dmp53 (UAS-Dmp53-FLAG-myc) (D. melanogaster) (UniProt Q9N6D8)
T1 sequence: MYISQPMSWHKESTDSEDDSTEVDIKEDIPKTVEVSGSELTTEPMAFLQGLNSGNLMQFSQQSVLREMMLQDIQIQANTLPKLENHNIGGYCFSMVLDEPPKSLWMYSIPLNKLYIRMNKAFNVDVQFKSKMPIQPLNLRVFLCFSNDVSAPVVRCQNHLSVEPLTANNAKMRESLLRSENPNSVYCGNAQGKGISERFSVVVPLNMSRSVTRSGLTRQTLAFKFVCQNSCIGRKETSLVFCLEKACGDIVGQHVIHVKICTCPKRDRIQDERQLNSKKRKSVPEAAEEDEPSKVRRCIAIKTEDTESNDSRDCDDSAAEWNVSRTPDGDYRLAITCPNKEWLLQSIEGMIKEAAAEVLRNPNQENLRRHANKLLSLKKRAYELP
Assay: co-IP; head extracts (about 75 heads, 500 ug protein) of females expressing Dmp53-FLAG-myc for ten days; NP-40 lysis buffer (1% NP-40, 20 mM Tris pH 8.0, 137 mM NaCl, 2 mM EDTA, 10% glycerol); anti-FLAG M2 overnight at 4°C, Protein G-Sepharose; Western blot with anti-dSir2

B1: endogenous dSir2 (protein, UniProt Q9VK34 1-823)
chain: MMENYEEIRLGHIRSKDLGNQVPDTTQFYPPTKFDFGAEILASTSTEAEAEAEATATTTEPATSELAGKANGEIKTKTLAAREEQEIGANLEHKTKNPTKSMGEDEDDEEEEEEDDEEEEEDDEEGITGTSNEDEDSSSNCSSSVEPDWKLRWLQREFYTGRVPRQVIASIMPHFATGLAGDTDDSVLWDYLAHLLNEPKRRNKLASVNTFDDVISLVKKSQKIIVLTGAGVSVSCGIPDFRSTNGIYARLAHDFPDLPDPQAMFDINYFKRDPRPFYKFAREIYPGEFQPSPCHRFIKMLETKGKLLRNYTQNIDTLERVAGIQRVIECHGSFSTASCTKCRFKCNADALRADIFAQRIPVCPQCQPNKEQSVDASVAVTEEELRQLVENGIMKPDIVFFGEGLPDEYHTVMATDKDVCDLLIVIGSSLKVRPVAHIPSSIPATVPQILINREQLHHLKFDVELLGDSDVIINQICHRLSDNDDCWRQLCCDESVLTESKELMPPEHSNHHLHHHLLHHRHCSSESERQSQLDTDTQSIKSNSSADYILGSAGTCSDSGFESSTFSCGKRSTAAEAAAIERIKTDILVELNETTALSCDRLGLEGPQTTVESYRHLSIDSSKDSGIEQCDNEATPSYVRPSNLVQETKTVAPSLTPIPQQRGKRQTAAERLQPGTFYSHTNNYSYVFPGAQVFWDNDYSDDDDEEEERSHNRHSDLFGNVGHNYKDDDEDACDLNAVPLSPLLPPSLEAHIVTDIVNGSNEPLPNSSPGQKRTACIIEQQPTPAIETEIPPLKKRRPSEENKQQTQIERSEESPPPGQLAAV
With B1 the binding was “binds”.
